The results are deposited in PubChem (AID504749; NCATS, 2011).

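Malaria parasite (P. falciparum) lines kept in red blood cells; parasite DNA is measured by SYBR Green fluorescence after lysis, 72 h after compound addition. Each compound was titrated across a series from about 0.000037 to 29 µM. The number is the fitted AC50, the concentration giving a half-maximal change in signal; a lower value means higher potency, whether the curve shows a decrease or an increase. Calls follow the curve class and fit quality: every row here is inconclusive, covering signal-raising curves and weak, poorly fitted, partial or highest-dose-only inhibition curves.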

Values are in µM. Every entry below has the call inconclusive. These entries are mostly ones the record files as inconclusive; other results of the assay are not listed here. A potency from a partial, single-point or poor curve is only a rough figure.

O=c1[nH]c2ccccc2n1CCCN1CCN(C(c2ccccc2)c2ccccc2)CC1 [CP325] gave Potency 16.94 µM (inhibitor, partial curve, poor fit). For O=c1[nH]c2ccccc2n1CCCN1CCN(C(c2ccccc2)c2ccccc2)CC1 [PAD] the result was Potency 11.22 µM (inhibitor, single point). For O=c1[nH]c2ccccc2n1CCCN1CCN(C(c2ccccc2)c2ccccc2)CC1 [CP265] the result was Potency 17.78 µM (inhibitor, single point). Result for O=c1[nH]c2ccccc2n1CCCN1CCN(C(c2ccccc2)c2ccccc2)CC1 [CP215] was Potency 15.1 µM (inhibitor, partial curve, poor fit). For O=c1[nH]c2ccccc2n1CCCN1CCN(C(c2ccccc2)c2ccccc2)CC1 [CP266] the result was Potency 19.01 µM (inhibitor, single point). Result for O=c1[nH]c2ccccc2n1CCCN1CCN(C(c2ccccc2)c2ccccc2)CC1 [CP252] was Potency 10 µM (inhibitor, single point).

O=c1[nH]c2ccccc2n1CCCN1CCN(C(c2ccccc2)c2ccccc2)CC1 [P93_24] gave Potency 8.912 µM (inhibitor, single point). Result for O=c1[nH]c2ccccc2n1CCCN1CCN(C(c2ccccc2)c2ccccc2)CC1 [3D7] was Potency 17.78 µM (inhibitor, single point). With O=c1[nH]c2ccccc2n1CCCN1CCN(C(c2ccccc2)c2ccccc2)CC1 [CP238] the assay gave Potency 11.22 µM (inhibitor, single point). O=c1[nH]c2ccccc2n1CCCN1CCN(C(c2ccccc2)c2ccccc2)CC1 [DIV30] gave Potency 19.01 µM (inhibitor, single point). With O=c1[nH]c2ccccc2n1CCCN1CCN(C(c2ccccc2)c2ccccc2)CC1 [CP286] the assay gave Potency 12.59 µM (inhibitor, single point). With O=c1[nH]c2ccccc2n1CCCN1CCN(C(c2ccccc2)c2ccccc2)CC1 [CP291] the assay gave Potency 5.358 µM (inhibitor, partial curve, poor fit).

For O=c1[nH]c2ccccc2n1CCCN1CCN(C(c2ccccc2)c2ccccc2)CC1 [TAB113] the result was Potency 3.981 µM (inhibitor, partial curve). O=c1[nH]c2ccccc2n1CCCN1CCN(C(c2ccccc2)c2ccccc2)CC1 [CP192] read Potency 12 µM (inhibitor, partial curve, poor fit). With O=c1[nH]c2ccccc2n1CCCN1CCN(C(c2ccccc2)c2ccccc2)CC1 [CP194] the assay gave Potency 12 µM (inhibitor, single point). With O=c1[nH]c2ccccc2n1CCCN1CCN(C(c2ccccc2)c2ccccc2)CC1 [ATS189] the assay gave Potency 11.22 µM (inhibitor, single point). O=c1[nH]c2ccccc2n1CCCN1CCN(C(c2ccccc2)c2ccccc2)CC1 [P94_40] read Potency 11.22 µM (inhibitor, single point).

The first 2 entries again:

Compound,setting,Potency (µM),curve
O=c1[nH]c2ccccc2n1CCCN1CCN(C(c2ccccc2)c2ccccc2)CC1,CP325,16.94,"inhibitor, partial curve, poor fit"
O=c1[nH]c2ccccc2n1CCCN1CCN(C(c2ccccc2)c2ccccc2)CC1,PAD,11.22,"inhibitor, single point"